Common to all, as to experiment: co-IP; immunoprecipitations with antibodies against Su(Hw), Brm, ISWI, Mi-2 and CHD1 from nuclear protein extracts of Drosophila S2 cells; Western blot; serum of non-immunized rabbits as negative control
A general note: A western blot detects proteins with antibodies after separation by electrophoresis.

By UniProt entry, the sequences of proteins in these tests, tags left out.
UniProt O97159: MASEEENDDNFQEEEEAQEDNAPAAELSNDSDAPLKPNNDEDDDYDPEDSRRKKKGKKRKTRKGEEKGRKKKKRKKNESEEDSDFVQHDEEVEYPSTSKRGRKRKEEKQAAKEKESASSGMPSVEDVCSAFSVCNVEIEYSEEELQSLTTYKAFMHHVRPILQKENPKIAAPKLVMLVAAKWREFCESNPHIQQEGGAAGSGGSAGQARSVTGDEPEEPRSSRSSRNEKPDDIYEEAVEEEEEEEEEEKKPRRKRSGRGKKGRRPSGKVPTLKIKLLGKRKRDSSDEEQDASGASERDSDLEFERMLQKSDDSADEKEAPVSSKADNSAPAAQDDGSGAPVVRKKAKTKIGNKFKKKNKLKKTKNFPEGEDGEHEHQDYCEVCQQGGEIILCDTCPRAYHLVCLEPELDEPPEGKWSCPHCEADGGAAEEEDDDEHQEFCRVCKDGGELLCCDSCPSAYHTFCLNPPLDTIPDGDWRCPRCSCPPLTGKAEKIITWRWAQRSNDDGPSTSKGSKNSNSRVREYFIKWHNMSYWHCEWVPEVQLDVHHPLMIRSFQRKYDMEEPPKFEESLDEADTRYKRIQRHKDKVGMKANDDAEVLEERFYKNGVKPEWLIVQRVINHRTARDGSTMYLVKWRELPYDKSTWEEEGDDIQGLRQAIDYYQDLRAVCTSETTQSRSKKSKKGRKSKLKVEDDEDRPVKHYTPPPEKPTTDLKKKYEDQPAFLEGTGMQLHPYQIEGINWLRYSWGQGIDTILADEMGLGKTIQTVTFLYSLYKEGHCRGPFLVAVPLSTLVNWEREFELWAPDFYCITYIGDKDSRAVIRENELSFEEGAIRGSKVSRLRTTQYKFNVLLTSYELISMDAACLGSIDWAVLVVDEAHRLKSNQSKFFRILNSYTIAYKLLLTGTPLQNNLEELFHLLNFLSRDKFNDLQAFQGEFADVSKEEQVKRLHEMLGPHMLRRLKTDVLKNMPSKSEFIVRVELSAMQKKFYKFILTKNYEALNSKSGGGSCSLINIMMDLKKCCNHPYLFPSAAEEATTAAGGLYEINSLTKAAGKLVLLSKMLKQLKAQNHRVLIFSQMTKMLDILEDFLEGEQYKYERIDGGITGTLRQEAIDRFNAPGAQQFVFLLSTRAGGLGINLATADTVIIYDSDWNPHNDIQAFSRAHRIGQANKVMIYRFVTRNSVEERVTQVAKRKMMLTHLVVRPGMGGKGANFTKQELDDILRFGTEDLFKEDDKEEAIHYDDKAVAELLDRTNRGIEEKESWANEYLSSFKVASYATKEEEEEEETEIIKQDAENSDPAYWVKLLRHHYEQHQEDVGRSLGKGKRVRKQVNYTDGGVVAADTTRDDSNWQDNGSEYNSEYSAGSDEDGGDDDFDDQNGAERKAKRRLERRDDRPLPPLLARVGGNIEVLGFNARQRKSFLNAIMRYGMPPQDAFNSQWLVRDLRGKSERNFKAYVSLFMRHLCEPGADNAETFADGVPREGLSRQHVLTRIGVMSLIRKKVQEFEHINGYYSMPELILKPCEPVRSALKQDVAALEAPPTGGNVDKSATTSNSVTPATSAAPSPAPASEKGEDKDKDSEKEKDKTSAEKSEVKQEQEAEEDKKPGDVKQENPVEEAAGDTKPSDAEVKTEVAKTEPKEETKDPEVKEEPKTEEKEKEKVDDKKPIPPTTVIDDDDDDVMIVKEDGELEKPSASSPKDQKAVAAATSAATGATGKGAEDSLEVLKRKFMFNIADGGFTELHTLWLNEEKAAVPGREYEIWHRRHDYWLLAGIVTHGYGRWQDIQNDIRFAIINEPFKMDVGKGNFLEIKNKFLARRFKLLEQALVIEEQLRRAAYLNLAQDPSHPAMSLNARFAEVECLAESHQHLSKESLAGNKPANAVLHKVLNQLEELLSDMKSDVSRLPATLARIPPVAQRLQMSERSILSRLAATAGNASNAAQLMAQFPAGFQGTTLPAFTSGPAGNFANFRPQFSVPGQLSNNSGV
UniProt Q7KU24: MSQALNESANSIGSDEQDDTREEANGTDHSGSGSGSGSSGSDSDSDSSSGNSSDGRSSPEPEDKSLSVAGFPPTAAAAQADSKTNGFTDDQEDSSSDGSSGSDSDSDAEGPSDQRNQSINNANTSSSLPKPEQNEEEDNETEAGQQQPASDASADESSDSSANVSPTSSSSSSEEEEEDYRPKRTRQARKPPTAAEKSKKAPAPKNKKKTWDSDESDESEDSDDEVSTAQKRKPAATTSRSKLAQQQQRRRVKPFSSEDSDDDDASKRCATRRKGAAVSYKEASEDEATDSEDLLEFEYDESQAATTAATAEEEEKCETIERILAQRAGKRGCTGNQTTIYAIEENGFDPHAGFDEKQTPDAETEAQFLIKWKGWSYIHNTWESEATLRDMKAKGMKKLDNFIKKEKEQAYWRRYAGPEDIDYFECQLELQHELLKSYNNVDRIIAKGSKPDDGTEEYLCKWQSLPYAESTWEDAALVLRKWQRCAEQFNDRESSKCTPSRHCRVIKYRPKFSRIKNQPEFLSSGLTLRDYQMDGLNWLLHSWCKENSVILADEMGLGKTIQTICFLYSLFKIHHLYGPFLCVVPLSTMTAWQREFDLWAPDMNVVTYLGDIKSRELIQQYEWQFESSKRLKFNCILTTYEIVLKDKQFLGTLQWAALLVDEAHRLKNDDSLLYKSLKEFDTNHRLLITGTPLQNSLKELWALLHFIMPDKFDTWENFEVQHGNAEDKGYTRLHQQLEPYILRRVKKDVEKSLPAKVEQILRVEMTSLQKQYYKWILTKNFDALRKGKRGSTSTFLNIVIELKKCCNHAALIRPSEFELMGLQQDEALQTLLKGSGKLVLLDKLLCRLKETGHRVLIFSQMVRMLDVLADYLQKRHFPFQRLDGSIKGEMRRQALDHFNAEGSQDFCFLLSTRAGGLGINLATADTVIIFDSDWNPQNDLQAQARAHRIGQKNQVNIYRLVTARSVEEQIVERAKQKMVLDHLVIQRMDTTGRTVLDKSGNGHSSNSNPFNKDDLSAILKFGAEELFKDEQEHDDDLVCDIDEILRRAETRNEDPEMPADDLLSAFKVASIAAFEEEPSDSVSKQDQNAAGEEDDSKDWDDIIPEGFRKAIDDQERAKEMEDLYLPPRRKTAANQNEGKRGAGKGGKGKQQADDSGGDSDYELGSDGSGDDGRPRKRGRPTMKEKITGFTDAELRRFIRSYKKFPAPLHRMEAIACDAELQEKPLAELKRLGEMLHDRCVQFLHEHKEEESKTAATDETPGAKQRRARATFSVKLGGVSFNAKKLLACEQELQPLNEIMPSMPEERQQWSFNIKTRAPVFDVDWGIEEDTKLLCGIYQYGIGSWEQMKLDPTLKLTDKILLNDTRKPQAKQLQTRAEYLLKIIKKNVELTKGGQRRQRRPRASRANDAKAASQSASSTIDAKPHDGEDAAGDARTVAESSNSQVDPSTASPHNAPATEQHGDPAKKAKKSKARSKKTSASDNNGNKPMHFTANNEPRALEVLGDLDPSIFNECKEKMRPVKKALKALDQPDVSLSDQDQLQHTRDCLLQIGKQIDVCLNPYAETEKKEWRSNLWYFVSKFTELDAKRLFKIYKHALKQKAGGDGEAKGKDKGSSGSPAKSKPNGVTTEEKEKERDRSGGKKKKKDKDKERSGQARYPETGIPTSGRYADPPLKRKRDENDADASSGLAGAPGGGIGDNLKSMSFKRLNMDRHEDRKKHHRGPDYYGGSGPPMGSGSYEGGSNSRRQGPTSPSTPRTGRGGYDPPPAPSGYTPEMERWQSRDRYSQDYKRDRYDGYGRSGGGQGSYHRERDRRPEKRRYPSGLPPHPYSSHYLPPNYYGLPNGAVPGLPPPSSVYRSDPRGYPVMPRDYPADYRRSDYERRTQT
UniProt Q24368: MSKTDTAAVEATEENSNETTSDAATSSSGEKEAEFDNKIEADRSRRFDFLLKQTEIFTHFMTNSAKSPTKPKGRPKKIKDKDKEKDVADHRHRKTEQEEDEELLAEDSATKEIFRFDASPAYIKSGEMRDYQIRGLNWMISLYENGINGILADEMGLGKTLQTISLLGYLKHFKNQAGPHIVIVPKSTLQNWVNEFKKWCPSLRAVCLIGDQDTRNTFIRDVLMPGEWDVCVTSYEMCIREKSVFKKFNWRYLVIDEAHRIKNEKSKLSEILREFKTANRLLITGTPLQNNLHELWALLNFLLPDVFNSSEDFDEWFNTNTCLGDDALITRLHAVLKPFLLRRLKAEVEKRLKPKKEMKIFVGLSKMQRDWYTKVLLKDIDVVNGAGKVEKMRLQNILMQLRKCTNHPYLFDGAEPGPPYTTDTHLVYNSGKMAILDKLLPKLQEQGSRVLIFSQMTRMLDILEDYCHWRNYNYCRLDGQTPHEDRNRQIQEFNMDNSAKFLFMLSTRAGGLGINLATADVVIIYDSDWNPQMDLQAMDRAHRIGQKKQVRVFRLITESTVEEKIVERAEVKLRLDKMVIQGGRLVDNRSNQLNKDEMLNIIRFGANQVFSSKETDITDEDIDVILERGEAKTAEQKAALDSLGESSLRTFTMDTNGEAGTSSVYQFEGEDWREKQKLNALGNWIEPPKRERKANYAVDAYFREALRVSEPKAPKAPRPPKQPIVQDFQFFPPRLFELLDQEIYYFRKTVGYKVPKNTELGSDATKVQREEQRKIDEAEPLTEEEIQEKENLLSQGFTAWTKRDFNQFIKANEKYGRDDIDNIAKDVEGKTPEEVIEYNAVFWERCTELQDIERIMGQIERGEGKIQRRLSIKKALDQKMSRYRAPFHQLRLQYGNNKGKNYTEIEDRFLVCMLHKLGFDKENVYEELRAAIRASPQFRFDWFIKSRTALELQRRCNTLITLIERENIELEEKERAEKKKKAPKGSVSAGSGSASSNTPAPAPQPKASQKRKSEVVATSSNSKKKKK
UniProt P25439: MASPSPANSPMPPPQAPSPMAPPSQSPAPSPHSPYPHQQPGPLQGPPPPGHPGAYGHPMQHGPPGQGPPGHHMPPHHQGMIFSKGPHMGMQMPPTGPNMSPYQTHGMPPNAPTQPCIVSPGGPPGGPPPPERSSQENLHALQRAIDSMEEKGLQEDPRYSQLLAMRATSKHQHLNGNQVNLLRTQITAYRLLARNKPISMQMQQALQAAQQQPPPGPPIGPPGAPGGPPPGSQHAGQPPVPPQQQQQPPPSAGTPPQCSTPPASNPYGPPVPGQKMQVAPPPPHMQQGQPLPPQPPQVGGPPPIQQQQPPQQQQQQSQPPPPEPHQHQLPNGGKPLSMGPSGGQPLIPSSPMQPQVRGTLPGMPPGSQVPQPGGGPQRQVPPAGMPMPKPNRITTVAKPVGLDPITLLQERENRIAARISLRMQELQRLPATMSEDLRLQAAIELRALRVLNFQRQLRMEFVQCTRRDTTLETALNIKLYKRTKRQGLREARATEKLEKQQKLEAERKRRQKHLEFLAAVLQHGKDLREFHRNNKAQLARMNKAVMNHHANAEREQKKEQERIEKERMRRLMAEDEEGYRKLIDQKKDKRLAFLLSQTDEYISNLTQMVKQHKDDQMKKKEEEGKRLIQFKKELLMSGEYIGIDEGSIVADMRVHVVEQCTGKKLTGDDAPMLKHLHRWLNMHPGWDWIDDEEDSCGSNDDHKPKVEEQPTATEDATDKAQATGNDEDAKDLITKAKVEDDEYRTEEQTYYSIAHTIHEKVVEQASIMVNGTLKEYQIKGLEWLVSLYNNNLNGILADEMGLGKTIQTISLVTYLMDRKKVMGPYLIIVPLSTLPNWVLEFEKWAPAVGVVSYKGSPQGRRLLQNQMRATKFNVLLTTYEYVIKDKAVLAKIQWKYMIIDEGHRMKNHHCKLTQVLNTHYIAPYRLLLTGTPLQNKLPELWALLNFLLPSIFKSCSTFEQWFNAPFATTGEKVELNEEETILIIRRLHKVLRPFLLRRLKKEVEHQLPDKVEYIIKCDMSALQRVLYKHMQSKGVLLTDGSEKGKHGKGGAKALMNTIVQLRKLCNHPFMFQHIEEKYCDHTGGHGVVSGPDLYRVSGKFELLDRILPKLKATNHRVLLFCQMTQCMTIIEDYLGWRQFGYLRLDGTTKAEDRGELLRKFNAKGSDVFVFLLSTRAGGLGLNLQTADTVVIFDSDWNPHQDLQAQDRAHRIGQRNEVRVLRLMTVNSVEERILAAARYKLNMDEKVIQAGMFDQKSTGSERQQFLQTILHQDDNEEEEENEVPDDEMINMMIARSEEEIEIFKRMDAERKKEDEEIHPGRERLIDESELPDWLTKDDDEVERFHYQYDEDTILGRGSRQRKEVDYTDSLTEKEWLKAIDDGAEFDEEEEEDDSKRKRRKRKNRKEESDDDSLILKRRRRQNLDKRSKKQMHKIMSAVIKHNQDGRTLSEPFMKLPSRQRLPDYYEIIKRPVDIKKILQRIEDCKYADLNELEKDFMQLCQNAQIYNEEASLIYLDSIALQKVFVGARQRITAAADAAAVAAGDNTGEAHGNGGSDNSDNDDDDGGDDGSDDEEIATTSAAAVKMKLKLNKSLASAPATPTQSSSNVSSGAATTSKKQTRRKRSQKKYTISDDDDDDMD

Assay [1] deals with T1, Suppressor of Hairy wing [Su(Hw)] (Drosophila (endogenous in S2 cells)) (UniProt P08970).
T1 sequence: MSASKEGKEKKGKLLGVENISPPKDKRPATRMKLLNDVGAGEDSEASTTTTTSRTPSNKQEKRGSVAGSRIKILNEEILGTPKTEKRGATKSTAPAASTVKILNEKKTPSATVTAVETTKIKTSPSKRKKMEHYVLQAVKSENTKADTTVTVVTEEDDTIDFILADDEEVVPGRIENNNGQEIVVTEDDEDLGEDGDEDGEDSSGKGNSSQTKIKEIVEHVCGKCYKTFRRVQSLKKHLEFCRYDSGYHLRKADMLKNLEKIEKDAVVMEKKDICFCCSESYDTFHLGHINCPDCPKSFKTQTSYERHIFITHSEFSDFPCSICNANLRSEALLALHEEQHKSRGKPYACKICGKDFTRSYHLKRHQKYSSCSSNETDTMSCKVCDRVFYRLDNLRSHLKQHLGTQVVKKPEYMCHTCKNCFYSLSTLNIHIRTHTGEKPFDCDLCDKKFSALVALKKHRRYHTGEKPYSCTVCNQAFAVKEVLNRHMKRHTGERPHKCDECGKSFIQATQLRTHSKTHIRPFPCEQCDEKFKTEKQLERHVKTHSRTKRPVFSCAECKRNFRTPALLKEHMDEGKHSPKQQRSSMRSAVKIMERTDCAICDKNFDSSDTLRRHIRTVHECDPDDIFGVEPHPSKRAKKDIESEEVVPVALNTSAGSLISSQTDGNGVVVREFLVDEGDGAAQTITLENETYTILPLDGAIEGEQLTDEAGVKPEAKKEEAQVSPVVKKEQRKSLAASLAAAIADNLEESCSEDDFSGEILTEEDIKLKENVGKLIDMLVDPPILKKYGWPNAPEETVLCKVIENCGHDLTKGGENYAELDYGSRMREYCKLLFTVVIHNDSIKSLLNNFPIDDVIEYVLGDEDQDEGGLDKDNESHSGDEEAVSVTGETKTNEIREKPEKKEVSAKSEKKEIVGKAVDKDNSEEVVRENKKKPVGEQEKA

Assay [2] addresses Mi-2 (CHD family chromatin remodeler) (Drosophila (endogenous in S2 cells)) (UniProt O97159).
Assay [3] has as its target CHD1 (CHD family chromatin remodeler) (Drosophila (endogenous in S2 cells)) (UniProt Q7KU24).
In assay [4] the target is ISWI (ISWI family chromatin remodeler) (Drosophila (endogenous in S2 cells)) (UniProt Q24368).
For assay [5], the target named is Brahma (SWI/SNF family chromatin remodeler) (Drosophila (endogenous in S2 cells)) (UniProt P25439).

These are yes or no findings as the source states them, for the method shown. In cells and extracts the contact can be indirect. Some binding calls cover weakened binding; strength is not graded here.

As to “Mi-2 (CHD family chromatin remodeler) (from UniProt O97159 1-1982)”, the binding result in assay [1] was “binds”.
For the molecule “ISWI (ISWI family chromatin remodeler) (from UniProt Q24368 1-1027)”, in assay [1], the binding result is “binds”.
On the same count and under the same terms, the result for “CHD1 (CHD family chromatin remodeler) (from UniProt Q7KU24 1-1883)” reads “binds”; that for “Brahma (SWI/SNF family chromatin remodeler) (from UniProt P25439 1-1638)”, “binds”.

B1: Suppressor of Hairy wing [Su(Hw)] (protein, UniProt P08970 1-941)
chain: MSASKEGKEKKGKLLGVENISPPKDKRPATRMKLLNDVGAGEDSEASTTTTTSRTPSNKQEKRGSVAGSRIKILNEEILGTPKTEKRGATKSTAPAASTVKILNEKKTPSATVTAVETTKIKTSPSKRKKMEHYVLQAVKSENTKADTTVTVVTEEDDTIDFILADDEEVVPGRIENNNGQEIVVTEDDEDLGEDGDEDGEDSSGKGNSSQTKIKEIVEHVCGKCYKTFRRVQSLKKHLEFCRYDSGYHLRKADMLKNLEKIEKDAVVMEKKDICFCCSESYDTFHLGHINCPDCPKSFKTQTSYERHIFITHSEFSDFPCSICNANLRSEALLALHEEQHKSRGKPYACKICGKDFTRSYHLKRHQKYSSCSSNETDTMSCKVCDRVFYRLDNLRSHLKQHLGTQVVKKPEYMCHTCKNCFYSLSTLNIHIRTHTGEKPFDCDLCDKKFSALVALKKHRRYHTGEKPYSCTVCNQAFAVKEVLNRHMKRHTGERPHKCDECGKSFIQATQLRTHSKTHIRPFPCEQCDEKFKTEKQLERHVKTHSRTKRPVFSCAECKRNFRTPALLKEHMDEGKHSPKQQRSSMRSAVKIMERTDCAICDKNFDSSDTLRRHIRTVHECDPDDIFGVEPHPSKRAKKDIESEEVVPVALNTSAGSLISSQTDGNGVVVREFLVDEGDGAAQTITLENETYTILPLDGAIEGEQLTDEAGVKPEAKKEEAQVSPVVKKEQRKSLAASLAAAIADNLEESCSEDDFSGEILTEEDIKLKENVGKLIDMLVDPPILKKYGWPNAPEETVLCKVIENCGHDLTKGGENYAELDYGSRMREYCKLLFTVVIHNDSIKSLLNNFPIDDVIEYVLGDEDQDEGGLDKDNESHSGDEEAVSVTGETKTNEIREKPEKKEVSAKSEKKEIVGKAVDKDNSEEVVRENKKKPVGEQEKA
Regarding B1, the binding entry in assay [2], in assay [3], in assay [4] and in assay [5] was “binds” each time.

The values above are taken from publication PMC8379230.
